Experimental findings from article PMC9226075 are described below.

Chains of the proteins cited; added tags and fusions are not shown.
UniProt Q91Z31: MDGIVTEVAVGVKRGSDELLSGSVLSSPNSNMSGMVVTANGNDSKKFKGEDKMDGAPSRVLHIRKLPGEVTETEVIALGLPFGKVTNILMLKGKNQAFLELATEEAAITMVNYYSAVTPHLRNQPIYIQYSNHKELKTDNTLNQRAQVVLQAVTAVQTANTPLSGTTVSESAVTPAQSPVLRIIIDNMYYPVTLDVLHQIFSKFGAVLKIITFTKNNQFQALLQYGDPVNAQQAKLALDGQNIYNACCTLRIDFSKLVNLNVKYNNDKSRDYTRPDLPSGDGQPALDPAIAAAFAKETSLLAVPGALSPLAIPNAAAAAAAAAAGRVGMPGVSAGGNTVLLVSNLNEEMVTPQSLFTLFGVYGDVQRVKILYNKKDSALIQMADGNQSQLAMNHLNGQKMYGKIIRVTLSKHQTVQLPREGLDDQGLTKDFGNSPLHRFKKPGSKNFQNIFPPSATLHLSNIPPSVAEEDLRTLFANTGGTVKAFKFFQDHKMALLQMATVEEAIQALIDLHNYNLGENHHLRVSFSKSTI

Results are given in words; binding and its absence hold for the method and conditions named. Binding seen in cells or lysates may run through a third protein. Some results given as binding are weak or reduced against the parent protein; the word gives no strength. For part of these data: Tags and fused reporters may be left off the sequences shown.

One assay deals with T1, FLAG-hnRNPH1 (mouse) (UniProt O35737).
T1 sequence: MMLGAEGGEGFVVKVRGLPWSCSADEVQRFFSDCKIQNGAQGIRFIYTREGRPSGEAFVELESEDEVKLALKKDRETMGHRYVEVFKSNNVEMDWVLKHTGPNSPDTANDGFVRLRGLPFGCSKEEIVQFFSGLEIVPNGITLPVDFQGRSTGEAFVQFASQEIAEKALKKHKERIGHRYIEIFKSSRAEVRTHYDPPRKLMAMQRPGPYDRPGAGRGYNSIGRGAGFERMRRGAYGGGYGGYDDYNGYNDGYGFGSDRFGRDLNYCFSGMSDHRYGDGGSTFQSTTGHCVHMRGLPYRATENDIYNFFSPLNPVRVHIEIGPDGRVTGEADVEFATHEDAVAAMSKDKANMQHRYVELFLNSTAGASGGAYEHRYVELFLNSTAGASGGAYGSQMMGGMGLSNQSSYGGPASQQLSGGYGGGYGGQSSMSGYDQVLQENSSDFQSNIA
Nature of the assay: co-IP; HEK293T cells co-transfected with FLAG-hnRNPH1 and MYC-PTBP2 or MYC-SRSF3, 36 h; immunoprecipitated with anti-FLAG antibody, immunoblotted with FLAG and MYC antibodies. A general note: In western blotting, separated proteins are transferred to a membrane and probed.

Assay [1] deals with T2, hnRNPH1 (mouse (endogenous in testis and ovary)) (UniProt O35737).
T2 sequence: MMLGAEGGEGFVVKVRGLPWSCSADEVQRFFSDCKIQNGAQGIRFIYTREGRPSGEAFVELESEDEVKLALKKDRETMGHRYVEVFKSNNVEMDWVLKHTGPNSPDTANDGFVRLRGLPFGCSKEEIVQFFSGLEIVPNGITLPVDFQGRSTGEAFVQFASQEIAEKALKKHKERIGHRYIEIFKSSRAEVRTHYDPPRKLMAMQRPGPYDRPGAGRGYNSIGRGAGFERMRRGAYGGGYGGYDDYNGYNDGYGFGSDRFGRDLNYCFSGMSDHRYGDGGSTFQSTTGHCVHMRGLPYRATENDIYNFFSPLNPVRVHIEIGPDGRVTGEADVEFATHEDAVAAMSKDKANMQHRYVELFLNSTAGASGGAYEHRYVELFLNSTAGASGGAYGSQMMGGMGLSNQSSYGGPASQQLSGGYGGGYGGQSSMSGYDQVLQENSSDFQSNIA
The assay is described as follows: co-IP; endogenous proteins of E17.5 mouse ovaries, immunoprecipitation for hnRNPH1; western blot.

For assay [2], the target named is T2, hnRNPH1 (mouse (endogenous in testis and ovary)). The assay is described as follows: co-IP; endogenous proteins of mouse testis lysate, hnRNPH1 antibody, protein A/G magnetic beads, overnight at 4 °C; extracts treated with or without RNase A (1 µg/ml); IgG as negative control; western blot.

As for MYC-PTBP2 (from UniProt Q91Z31 1-531), in the assay with FLAG-hnRNPH1 (mouse), the binding entry is “binds”.
Consider PTBP2 (from UniProt Q91Z31 1-531), for which the binding result in assay [1] and in assay [2] was “binds” each time.

B1: SRSF3 (protein, UniProt P84104 1-164)
chain: MHRDSCPLDCKVYVGNLGNNGNKTELERAFGYYGPLRSVWVARNPPGFAFVEFEDPRDAADAVRELDGRTLCGCRVRVELSNGEKRSRNRGPPPSWGRRPRDDYRRRSPPPRRRSPRRRSFSRSRSRSLSRDRRRERSLSRERNHKPSRSFSRSRSRSRSNERK
Turning to B1, the binding result in assay [1] and in assay [2] was “binds” in each case.

B2: MYC-SRSF3 (protein, UniProt P84104 1-164)
chain: MHRDSCPLDCKVYVGNLGNNGNKTELERAFGYYGPLRSVWVARNPPGFAFVEFEDPRDAADAVRELDGRTLCGCRVRVELSNGEKRSRNRGPPPSWGRRPRDDYRRRSPPPRRRSPRRRSFSRSRSRSLSRDRRRERSLSRERNHKPSRSFSRSRSRSRSNERK
On to B2, for which, in the assay with FLAG-hnRNPH1 (mouse), the binding entry was “binds”.
